Here are results for 3 substances from paper PMC7218129.

Chains of the proteins cited; added tags and fusions are not shown.
UniProt Q92905: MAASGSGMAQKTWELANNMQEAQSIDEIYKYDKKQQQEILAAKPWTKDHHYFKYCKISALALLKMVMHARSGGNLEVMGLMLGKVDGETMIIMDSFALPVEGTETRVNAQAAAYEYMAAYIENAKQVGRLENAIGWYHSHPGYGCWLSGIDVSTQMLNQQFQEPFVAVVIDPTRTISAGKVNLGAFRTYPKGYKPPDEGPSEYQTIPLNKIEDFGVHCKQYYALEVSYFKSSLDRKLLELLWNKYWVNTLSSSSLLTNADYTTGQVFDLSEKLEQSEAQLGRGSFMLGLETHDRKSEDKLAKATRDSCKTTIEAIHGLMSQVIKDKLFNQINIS
UniProt Q13616: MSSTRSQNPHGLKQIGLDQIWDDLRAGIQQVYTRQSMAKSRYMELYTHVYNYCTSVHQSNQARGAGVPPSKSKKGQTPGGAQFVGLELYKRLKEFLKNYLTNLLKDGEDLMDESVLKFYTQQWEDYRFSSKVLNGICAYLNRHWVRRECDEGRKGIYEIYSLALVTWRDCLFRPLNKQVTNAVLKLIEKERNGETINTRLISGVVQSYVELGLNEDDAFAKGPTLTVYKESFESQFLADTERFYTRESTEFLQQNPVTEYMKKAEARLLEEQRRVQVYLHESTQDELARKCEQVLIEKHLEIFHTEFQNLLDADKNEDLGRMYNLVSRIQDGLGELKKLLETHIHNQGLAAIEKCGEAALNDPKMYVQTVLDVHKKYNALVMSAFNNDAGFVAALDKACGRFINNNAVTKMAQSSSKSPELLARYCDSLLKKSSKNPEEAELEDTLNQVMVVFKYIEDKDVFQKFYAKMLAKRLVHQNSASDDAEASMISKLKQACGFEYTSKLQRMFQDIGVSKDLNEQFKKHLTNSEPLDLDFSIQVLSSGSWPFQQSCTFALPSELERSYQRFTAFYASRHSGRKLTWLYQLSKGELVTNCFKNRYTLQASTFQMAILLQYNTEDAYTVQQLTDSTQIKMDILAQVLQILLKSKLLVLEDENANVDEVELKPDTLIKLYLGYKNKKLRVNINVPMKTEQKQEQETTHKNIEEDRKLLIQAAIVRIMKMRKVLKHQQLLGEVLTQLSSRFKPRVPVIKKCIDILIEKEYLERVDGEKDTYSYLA
UniProt O35864: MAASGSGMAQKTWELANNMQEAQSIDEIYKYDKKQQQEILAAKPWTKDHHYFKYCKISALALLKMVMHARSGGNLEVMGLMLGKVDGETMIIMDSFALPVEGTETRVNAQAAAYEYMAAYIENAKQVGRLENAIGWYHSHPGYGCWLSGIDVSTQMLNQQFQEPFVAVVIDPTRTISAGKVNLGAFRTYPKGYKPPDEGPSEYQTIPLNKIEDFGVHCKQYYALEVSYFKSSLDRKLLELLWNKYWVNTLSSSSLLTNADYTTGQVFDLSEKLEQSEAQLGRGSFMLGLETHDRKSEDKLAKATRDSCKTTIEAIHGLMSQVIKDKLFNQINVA
UniProt Q9WTX6: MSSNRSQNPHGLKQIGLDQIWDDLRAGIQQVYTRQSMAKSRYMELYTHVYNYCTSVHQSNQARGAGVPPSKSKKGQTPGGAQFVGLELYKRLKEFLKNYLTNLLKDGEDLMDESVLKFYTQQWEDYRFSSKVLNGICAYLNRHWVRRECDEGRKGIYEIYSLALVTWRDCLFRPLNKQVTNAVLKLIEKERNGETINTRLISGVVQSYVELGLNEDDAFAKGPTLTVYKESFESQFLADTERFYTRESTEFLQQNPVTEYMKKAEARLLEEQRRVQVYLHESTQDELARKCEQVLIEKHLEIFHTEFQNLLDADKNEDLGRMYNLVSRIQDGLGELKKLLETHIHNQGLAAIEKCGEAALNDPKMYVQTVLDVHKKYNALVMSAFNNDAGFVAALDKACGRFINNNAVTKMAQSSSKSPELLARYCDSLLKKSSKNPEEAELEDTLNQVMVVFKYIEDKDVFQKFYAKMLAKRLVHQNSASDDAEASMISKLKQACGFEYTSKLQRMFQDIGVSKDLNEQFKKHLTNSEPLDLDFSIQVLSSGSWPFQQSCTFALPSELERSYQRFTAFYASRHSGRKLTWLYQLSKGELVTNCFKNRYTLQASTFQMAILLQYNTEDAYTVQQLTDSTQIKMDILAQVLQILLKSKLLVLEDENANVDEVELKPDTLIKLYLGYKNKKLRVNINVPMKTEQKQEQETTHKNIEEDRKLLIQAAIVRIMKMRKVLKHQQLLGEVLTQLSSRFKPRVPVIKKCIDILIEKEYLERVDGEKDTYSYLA
UniProt Q9ULZ3: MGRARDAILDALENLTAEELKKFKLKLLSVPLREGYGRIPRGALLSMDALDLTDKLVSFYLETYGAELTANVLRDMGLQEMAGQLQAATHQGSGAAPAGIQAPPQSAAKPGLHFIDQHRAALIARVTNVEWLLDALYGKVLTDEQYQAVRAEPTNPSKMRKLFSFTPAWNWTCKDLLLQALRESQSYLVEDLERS
UniProt Q96P20: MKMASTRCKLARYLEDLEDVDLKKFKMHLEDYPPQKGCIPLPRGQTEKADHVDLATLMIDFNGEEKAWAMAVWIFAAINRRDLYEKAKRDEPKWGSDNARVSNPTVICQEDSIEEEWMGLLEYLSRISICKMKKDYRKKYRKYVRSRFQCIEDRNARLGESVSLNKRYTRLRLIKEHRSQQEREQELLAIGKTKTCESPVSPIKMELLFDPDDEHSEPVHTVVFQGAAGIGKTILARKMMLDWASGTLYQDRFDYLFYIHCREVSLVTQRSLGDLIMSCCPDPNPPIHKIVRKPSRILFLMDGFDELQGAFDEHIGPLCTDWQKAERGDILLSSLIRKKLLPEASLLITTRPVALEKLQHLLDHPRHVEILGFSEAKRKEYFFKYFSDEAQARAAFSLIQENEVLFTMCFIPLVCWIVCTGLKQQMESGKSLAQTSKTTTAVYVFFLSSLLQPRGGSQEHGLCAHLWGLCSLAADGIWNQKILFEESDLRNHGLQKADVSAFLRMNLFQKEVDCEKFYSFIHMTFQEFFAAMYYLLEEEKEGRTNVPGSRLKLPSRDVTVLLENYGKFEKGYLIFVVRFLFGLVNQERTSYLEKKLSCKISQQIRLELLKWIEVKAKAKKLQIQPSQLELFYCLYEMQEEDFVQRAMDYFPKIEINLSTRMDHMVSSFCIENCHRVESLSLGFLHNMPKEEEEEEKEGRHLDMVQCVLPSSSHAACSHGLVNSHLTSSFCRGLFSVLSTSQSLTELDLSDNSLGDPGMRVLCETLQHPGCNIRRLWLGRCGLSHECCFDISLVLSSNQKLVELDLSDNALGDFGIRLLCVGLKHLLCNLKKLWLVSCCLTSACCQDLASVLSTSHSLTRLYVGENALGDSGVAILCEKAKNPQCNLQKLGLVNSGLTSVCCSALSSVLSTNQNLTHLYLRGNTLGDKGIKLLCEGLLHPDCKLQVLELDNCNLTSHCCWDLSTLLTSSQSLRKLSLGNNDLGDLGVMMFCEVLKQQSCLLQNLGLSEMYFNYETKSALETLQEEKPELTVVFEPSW
UniProt Q8R4B8: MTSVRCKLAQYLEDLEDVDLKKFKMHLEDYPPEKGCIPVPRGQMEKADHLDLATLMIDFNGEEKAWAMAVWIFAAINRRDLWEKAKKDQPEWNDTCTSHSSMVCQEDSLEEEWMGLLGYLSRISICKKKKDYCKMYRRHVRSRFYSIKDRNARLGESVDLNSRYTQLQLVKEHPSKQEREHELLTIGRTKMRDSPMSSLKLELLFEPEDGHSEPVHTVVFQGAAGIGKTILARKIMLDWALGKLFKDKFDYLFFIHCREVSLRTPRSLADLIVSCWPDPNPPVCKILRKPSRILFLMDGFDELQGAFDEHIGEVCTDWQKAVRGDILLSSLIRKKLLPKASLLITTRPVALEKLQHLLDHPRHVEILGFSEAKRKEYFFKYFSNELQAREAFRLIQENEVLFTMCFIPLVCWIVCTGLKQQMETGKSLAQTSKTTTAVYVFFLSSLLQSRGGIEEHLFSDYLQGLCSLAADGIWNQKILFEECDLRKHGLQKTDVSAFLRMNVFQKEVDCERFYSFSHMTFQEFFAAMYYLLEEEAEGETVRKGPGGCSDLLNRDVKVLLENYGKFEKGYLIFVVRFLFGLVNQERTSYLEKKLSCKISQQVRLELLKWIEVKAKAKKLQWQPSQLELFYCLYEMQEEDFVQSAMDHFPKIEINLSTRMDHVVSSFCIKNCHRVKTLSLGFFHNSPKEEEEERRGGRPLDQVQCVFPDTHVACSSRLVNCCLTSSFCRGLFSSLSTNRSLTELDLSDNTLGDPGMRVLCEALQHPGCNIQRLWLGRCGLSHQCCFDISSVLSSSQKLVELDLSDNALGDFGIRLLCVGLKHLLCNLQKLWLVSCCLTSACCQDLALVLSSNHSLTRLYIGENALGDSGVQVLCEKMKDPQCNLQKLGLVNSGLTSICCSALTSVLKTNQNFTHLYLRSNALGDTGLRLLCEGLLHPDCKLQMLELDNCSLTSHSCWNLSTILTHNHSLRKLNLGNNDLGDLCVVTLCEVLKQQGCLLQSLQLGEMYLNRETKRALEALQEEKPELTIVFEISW
UniProt P29466: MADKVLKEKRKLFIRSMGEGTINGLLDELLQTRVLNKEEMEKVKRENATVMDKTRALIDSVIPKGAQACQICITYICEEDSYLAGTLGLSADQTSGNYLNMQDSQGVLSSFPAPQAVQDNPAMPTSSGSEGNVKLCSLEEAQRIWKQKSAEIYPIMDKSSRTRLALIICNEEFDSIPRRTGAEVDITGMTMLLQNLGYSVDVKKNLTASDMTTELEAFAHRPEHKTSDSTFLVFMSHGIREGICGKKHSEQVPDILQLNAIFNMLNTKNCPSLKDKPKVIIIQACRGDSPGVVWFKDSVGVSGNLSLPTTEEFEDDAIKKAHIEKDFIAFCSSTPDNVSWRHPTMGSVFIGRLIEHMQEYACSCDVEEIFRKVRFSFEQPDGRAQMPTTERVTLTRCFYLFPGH

No constants are given. Whether binding was seen depends on the method and setting. In cells and extracts the contact can be indirect. Some results given as binding are weak or reduced against the parent protein; the word gives no strength.

Experiment [1] concerns the target CSN5 (human (endogenous in THP-1)) (UniProt Q92905). In words: co-IP; THP-1 cell lysates precipitated with anti-CSN5 or anti-Cullin1 antibodies (mouse IgG as control), protein A/G-agarose, western blot; time course of CAPE treatment.
Experiment [2] has as its target Cullin1 (human (endogenous in THP-1)) (UniProt Q13616). The description is as above.
The target of experiment [3] is CSN5, mouse (mouse (endogenous in colon tissue)) (UniProt O35864). In words: co-IP; colon tissue lysates of AOM/DSS mice precipitated with anti-CSN5 or anti-Cullin1 antibodies (mouse IgG as control), protein A/G-agarose, western blot; several doses of CAPE.
For experiment [4], the target named is Cullin1, mouse (mouse (endogenous in colon tissue)) (UniProt Q9WTX6). The experiment is described as above.
Experiment [5] has as its target ASC (human (endogenous in THP-1)) (UniProt Q9ULZ3). In words: co-IP; total cell lysates precipitated with anti-ASC antibody (2 ug, 1 h, 4°C; mouse IgG as control), protein A/G-agarose overnight at 4°C, low-salt washes, western blot; cells treated with LPS + ATP, CAPE at several doses, with or without rotenone.

In the case of “NOD-like receptor protein 3 (NLRP3) (from UniProt Q96P20 1-1036)”, the binding entry in experiment [1] and in experiment [2] was “binds” throughout.

As to “NOD-like receptor protein 3 (NLRP3), mouse (from UniProt Q8R4B8 1-1033)”, the binding result in experiment [3] and in experiment [4] was “binds” each time.

“pro-caspase-1 (from UniProt P29466 1-404)”: the binding entry in experiment [5] was “binds”.
